# This is one part of the list.
# Sequences of proteins named here, by UniProt entry; tags and fusion partners are left off. A change or cut given only in a name is not applied to a line headed by its entry.
# UniProt Q92499: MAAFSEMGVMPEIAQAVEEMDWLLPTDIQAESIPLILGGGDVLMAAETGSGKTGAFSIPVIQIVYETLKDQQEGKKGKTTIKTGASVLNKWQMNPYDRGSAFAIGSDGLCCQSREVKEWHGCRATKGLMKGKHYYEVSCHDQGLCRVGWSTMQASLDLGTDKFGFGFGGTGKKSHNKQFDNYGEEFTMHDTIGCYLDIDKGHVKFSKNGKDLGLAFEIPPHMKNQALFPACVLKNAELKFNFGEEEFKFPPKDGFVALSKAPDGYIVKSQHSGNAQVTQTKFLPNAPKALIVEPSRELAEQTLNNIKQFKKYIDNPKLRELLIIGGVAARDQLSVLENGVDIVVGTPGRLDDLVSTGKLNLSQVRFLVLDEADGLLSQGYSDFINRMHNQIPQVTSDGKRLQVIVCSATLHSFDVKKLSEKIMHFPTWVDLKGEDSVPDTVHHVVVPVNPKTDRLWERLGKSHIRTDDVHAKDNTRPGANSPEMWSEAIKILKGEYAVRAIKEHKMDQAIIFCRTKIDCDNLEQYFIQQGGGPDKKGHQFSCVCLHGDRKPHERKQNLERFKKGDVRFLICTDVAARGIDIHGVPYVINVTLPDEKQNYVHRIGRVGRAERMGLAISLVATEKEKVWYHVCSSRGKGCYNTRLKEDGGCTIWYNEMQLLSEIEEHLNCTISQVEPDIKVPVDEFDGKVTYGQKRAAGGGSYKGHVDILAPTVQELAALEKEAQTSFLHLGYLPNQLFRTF
# UniProt Q9NVP1: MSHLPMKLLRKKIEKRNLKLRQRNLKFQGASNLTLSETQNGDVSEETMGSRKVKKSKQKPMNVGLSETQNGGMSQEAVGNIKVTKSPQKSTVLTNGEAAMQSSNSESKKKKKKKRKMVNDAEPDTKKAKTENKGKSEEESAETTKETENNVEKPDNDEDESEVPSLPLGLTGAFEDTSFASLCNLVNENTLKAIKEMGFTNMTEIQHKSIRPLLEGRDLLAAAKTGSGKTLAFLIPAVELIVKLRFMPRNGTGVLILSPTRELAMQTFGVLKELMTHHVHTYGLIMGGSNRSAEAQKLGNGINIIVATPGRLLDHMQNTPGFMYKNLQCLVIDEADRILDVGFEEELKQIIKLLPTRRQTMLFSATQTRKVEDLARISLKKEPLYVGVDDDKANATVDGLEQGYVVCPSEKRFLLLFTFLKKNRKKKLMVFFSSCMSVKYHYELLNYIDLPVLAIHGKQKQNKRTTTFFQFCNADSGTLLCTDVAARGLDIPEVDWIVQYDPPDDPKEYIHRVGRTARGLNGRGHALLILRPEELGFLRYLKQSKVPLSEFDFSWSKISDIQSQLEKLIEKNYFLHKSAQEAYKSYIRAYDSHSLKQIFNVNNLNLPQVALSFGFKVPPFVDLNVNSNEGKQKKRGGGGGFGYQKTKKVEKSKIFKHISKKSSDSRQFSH
# UniProt Q5TDH0: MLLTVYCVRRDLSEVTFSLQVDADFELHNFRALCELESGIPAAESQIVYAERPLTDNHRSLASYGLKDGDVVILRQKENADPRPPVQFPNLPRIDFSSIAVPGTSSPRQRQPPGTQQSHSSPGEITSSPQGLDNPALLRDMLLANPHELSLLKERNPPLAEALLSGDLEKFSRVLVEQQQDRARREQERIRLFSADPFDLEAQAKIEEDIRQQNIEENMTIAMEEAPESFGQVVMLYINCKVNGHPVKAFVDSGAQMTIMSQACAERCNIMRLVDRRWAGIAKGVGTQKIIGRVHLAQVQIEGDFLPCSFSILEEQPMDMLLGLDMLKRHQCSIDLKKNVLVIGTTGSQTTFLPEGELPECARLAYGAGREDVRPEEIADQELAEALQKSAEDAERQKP
# UniProt Q7Z3D6: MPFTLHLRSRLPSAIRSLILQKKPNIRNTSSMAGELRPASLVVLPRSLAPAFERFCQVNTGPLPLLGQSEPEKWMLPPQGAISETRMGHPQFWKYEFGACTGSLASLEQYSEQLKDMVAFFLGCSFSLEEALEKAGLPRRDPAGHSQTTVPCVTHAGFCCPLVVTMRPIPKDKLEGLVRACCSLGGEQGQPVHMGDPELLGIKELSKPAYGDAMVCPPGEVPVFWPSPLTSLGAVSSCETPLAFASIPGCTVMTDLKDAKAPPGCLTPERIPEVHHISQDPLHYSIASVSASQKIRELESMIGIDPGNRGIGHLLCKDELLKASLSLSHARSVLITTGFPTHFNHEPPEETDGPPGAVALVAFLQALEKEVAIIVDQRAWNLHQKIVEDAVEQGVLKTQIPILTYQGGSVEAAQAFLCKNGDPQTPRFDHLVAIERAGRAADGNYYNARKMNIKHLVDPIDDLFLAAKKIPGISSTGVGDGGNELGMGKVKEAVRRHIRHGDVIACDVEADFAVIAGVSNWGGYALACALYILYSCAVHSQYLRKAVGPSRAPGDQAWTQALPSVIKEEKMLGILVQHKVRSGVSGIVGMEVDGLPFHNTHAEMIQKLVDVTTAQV
# UniProt Q96QD5: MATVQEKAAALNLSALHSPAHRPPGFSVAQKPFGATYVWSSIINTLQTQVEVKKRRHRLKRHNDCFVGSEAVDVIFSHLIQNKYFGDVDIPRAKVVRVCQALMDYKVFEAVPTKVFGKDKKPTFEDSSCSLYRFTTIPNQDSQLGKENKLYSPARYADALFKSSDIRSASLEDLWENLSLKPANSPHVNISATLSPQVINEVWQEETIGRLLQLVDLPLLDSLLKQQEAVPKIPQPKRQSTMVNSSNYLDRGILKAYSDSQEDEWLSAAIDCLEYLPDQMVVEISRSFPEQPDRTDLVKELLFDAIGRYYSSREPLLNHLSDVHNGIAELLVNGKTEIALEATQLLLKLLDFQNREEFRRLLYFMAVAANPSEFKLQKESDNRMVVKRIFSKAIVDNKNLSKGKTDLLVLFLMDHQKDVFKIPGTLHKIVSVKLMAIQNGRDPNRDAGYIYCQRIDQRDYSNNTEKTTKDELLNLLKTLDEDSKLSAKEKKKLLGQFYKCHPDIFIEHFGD
# UniProt O43583: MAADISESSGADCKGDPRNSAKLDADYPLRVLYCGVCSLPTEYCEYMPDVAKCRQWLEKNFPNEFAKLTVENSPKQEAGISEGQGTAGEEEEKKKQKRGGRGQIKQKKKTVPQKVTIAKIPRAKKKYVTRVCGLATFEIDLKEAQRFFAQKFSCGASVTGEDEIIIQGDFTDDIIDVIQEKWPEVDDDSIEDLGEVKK
# UniProt Q9H8H2: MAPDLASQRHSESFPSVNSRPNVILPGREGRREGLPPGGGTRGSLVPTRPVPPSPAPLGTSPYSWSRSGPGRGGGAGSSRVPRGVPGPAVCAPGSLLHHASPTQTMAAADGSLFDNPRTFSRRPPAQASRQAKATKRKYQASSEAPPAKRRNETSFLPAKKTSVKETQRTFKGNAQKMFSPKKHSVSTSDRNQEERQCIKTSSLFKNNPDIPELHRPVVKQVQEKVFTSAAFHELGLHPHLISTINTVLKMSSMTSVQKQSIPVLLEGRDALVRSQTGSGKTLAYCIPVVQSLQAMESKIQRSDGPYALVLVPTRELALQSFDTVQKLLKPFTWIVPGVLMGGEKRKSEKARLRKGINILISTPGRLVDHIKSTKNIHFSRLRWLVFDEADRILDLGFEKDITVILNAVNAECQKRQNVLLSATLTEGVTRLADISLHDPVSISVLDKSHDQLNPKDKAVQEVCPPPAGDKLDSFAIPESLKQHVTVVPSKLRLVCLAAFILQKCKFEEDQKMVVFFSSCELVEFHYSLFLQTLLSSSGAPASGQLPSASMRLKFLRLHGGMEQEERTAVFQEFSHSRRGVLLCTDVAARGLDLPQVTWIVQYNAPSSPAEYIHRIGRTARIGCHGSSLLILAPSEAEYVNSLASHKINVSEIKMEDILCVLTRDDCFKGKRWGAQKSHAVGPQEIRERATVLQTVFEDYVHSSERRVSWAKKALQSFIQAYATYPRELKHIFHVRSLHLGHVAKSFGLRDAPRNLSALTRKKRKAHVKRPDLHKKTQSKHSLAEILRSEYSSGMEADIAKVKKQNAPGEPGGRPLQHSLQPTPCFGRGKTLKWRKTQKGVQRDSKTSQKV
# UniProt O75140: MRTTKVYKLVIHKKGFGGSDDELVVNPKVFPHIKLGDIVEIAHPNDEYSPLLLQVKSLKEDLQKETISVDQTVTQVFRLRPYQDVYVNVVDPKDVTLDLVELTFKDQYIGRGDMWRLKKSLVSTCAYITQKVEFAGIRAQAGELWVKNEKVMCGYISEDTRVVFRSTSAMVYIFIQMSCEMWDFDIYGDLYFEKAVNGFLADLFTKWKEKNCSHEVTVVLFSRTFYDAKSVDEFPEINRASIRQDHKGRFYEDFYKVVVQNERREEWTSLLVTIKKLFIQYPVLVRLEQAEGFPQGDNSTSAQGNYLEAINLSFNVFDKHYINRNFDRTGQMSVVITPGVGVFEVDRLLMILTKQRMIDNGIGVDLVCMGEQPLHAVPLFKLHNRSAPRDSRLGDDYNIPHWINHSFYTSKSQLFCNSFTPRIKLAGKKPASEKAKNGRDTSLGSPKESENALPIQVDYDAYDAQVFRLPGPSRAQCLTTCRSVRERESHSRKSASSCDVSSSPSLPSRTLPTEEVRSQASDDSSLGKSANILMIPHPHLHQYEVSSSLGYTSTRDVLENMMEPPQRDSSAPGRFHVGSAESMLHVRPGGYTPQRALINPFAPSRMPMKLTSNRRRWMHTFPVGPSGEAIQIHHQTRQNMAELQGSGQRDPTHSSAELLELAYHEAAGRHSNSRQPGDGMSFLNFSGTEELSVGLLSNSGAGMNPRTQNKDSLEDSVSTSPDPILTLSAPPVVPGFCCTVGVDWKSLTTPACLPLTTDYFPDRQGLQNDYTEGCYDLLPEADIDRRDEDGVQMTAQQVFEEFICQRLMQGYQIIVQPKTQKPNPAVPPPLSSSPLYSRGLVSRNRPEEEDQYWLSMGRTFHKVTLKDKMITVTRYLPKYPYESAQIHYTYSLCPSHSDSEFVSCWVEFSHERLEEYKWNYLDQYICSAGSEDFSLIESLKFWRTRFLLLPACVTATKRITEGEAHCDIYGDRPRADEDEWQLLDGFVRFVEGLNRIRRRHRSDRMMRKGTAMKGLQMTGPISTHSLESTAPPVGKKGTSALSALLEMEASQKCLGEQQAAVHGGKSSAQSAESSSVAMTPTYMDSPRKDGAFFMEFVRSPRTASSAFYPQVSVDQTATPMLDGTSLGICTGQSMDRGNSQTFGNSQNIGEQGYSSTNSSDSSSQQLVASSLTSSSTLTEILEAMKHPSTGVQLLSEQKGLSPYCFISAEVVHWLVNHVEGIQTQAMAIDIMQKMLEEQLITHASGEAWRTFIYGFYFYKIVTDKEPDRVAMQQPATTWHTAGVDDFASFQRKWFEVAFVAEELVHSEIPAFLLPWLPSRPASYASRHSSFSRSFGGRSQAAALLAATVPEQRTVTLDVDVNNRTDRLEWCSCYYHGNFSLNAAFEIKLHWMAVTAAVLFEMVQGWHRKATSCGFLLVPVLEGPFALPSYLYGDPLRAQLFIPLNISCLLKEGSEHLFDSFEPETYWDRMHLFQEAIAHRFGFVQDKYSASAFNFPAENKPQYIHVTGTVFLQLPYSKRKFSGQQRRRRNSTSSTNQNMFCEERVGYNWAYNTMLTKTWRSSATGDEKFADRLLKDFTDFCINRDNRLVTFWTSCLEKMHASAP
# UniProt P52824: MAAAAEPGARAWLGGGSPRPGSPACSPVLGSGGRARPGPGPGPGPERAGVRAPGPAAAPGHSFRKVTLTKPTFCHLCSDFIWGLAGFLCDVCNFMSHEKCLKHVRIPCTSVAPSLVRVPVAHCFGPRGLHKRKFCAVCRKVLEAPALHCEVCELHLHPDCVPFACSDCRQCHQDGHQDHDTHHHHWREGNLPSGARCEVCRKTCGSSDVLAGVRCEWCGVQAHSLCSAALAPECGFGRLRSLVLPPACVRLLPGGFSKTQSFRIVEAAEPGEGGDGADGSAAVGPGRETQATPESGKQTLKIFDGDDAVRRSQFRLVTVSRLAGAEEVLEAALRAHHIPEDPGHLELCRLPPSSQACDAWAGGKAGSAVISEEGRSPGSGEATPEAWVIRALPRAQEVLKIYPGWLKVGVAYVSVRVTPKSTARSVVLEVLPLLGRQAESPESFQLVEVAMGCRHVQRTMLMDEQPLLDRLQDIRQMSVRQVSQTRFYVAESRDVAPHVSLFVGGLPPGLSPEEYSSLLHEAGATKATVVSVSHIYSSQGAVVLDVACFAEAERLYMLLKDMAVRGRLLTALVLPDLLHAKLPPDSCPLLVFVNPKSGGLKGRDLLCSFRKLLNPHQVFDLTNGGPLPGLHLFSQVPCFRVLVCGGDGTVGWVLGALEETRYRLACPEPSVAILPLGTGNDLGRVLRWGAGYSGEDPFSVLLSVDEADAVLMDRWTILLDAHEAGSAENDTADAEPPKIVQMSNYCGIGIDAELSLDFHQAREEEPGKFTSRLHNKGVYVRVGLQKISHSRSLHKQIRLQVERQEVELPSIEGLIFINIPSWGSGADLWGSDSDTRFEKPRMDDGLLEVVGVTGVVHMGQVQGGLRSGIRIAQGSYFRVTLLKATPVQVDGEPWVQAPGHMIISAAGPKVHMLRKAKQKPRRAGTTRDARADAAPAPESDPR
# Compound: Cc1cc(ccc1-c1ccccc1)C(=O)N1CCCN(CC1)C(=O)CCl [compound 10]
# Assay: probe-labelled cysteine peptide fold change vs DMSO (competition) (log2 fold change); higher = less target engagement (more negative = stronger competition)
# Details: 10 µM; THP-1; incubation time: 4 h
# 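Also: competitive profiling in live THP-1 cells: cysteine peptides tagged with an iodoacetamide desthiobiotin (IA-DTB) probe, intensity after compound treatment relative to DMSO-treated cells.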
row,Target,probe-labelled cysteine peptide fold change
1,DDX51_Q8N8A6_253_GGYRPSDLCVSAPTGSGK (UniProt Q8N8A6),-0.0905
2,DDX6_P26196_361_KISQLGYSCFYIHAK (UniProt P26196),-0.0496
3,DENND1C_Q8IV53_349_AQALLFGGYRDALVCSPGQPVTFSEEVFLAQKPGAPLQAFHR (UniProt Q8IV53),0.0694
4,DDX21_Q9NR30_445_TIIFCETK (UniProt Q9NR30),0.116
5,DDX21_Q9NR30_445_TIIFCETKK (UniProt Q9NR30),0.0956
6,DDX10_Q13206_196_INNINILVCTPGR (UniProt Q13206),0.0926
7,DDX41_Q9UJV9_338_KMVSLDICR (UniProt Q9UJV9),-0.119
8,DDX1_Q92499_145_HYYEVSCHDQGLCR (UniProt Q92499),0.0291
9,DDX58_O95786_680_CILDAFK (UniProt O95786),-0.0369
10,DDX6_P26196_102_GNEFEDYCLK (UniProt P26196),-0.219
11,DEF6_Q9H4E7_266+267_GIIPLDAHCCVEVLPDRDGKR (UniProt Q9H4E7),0.0112
12,DDX39B_Q13838_198_HFILDECDK (UniProt Q13838),0.101
13,DENND4C_Q5VZ89_1211_VVQREDVETGLDPLSLLATECTGGK (UniProt Q5VZ89),-0.182
14,DGKZ_Q13574_793_AIPVQVDGEPCK (UniProt Q13574),0.124
15,DDX18_Q9NVP1_329_NLQCLVIDEADR (UniProt Q9NVP1),0.137
16,DDX28_Q9NUL7_453_DILLCTDIASR (UniProt Q9NUL7),-0.0698
17,DDX27_Q96GQ7_259_DICACAATGTGK (UniProt Q96GQ7),0.0194
18,DDI2_Q5TDH0_34_ALCELESGIPAAESQIVYAERPLTDNHR (UniProt Q5TDH0),0.0206

row,Target,probe-labelled cysteine peptide fold change
1,DDX46_Q7L014_478_VVCVYGGTGISEQIAELKR (UniProt Q7L014),0.037
2,DGLUCY_Q7Z3D6_316_GIGHLLCK (UniProt Q7Z3D6),-0.0414
3,DENND3_A2RUS2_499_LTDTAGCR (UniProt A2RUS2),-0.198
4,DDX1_Q92499_544_GHQFSCVCLHGDR (UniProt Q92499),0.0844
5,DDX39A_O00148_299_CMALAQLLVEQNFPAIAIHR (UniProt O00148),-0.0992
6,DENND4C_Q5VZ89_1113_TCMSESTWNPEHR (UniProt Q5VZ89),-0.0425
7,DGAT2_Q96PD7_312_YIGFAPCIFHGR (UniProt Q96PD7),0.0105
8,DEPDC7_Q96QD5_65_HNDCFVGSEAVDVIFSHLIQNK (UniProt Q96QD5),0.082
9,DGLUCY_Q7Z3D6_265_APPGCLTPER (UniProt Q7Z3D6),-0.239
10,DENR_O43583_132_VCGLATFEIDLK (UniProt O43583),0.187
11,DEF6_Q9H4E7_94_EHFDELCWTLTAK (UniProt Q9H4E7),0.0581
12,DENND3_A2RUS2_1174_TLCSAEDRYVLSGSGR (UniProt A2RUS2),0.153
13,DDX31_Q9H8H2_624_IGCHGSSLLILAPSEAEYVNSLASHK (UniProt Q9H8H2),0.0659
14,DEPDC5_O75140_416_SQLFCNSFTPR (UniProt O75140),-0.124
15,DGKQ_P52824_171_QCHQDGHQDHDTHHHHWR (UniProt P52824),0.222
16,DDX59_Q5T1V6_453_LFKPPVLVFVDCK (UniProt Q5T1V6),-0.33
17,DDX46_Q7L014_696_HLILVVNYSCPNHYEDYVHR (UniProt Q7L014),-0.0835
18,DDX5_P17844_170_TLSYLLPAIVHINHQPFLERGDGPICLVLAPTR (UniProt P17844),0.236

# Same assay, conditions: 50 µM; THP-1; incubation time: 4 h
row,Target,probe-labelled cysteine peptide fold change
1,DDX51_Q8N8A6_253_GGYRPSDLCVSAPTGSGK (UniProt Q8N8A6),0.262
2,DDX6_P26196_361_KISQLGYSCFYIHAK (UniProt P26196),0.284
3,DENND1C_Q8IV53_349_AQALLFGGYRDALVCSPGQPVTFSEEVFLAQKPGAPLQAFHR (UniProt Q8IV53),-0.0849
4,DDX21_Q9NR30_445_TIIFCETK (UniProt Q9NR30),0.377
5,DDX21_Q9NR30_445_TIIFCETKK (UniProt Q9NR30),-0.0526
6,DDX10_Q13206_196_INNINILVCTPGR (UniProt Q13206),0.195
7,DDX41_Q9UJV9_338_KMVSLDICR (UniProt Q9UJV9),-0.532
8,DDX1_Q92499_145_HYYEVSCHDQGLCR (UniProt Q92499),0.0413
9,DDX58_O95786_680_CILDAFK (UniProt O95786),-0.629
10,DDX6_P26196_102_GNEFEDYCLK (UniProt P26196),-0.0192
11,DEF6_Q9H4E7_266+267_GIIPLDAHCCVEVLPDRDGKR (UniProt Q9H4E7),-0.772
12,DDX39B_Q13838_198_HFILDECDK (UniProt Q13838),0.209
13,DENND4C_Q5VZ89_1211_VVQREDVETGLDPLSLLATECTGGK (UniProt Q5VZ89),0.0107
14,DGKZ_Q13574_793_AIPVQVDGEPCK (UniProt Q13574),0.034
15,DDX18_Q9NVP1_329_NLQCLVIDEADR (UniProt Q9NVP1),0.39
16,DDX28_Q9NUL7_453_DILLCTDIASR (UniProt Q9NUL7),-0.248
17,DDX27_Q96GQ7_259_DICACAATGTGK (UniProt Q96GQ7),-0.0602
18,DDI2_Q5TDH0_34_ALCELESGIPAAESQIVYAERPLTDNHR (UniProt Q5TDH0),-0.327

row,Target,probe-labelled cysteine peptide fold change
1,DDX46_Q7L014_478_VVCVYGGTGISEQIAELKR (UniProt Q7L014),-0.186
2,DGLUCY_Q7Z3D6_316_GIGHLLCK (UniProt Q7Z3D6),0.0827
3,DENND3_A2RUS2_499_LTDTAGCR (UniProt A2RUS2),-0.918
4,DDX1_Q92499_544_GHQFSCVCLHGDR (UniProt Q92499),0.0146
5,DDX39A_O00148_299_CMALAQLLVEQNFPAIAIHR (UniProt O00148),0.289
6,DENND4C_Q5VZ89_1113_TCMSESTWNPEHR (UniProt Q5VZ89),-0.0779
7,DGAT2_Q96PD7_312_YIGFAPCIFHGR (UniProt Q96PD7),0.746
8,DEPDC7_Q96QD5_65_HNDCFVGSEAVDVIFSHLIQNK (UniProt Q96QD5),-0.0131
9,DGLUCY_Q7Z3D6_265_APPGCLTPER (UniProt Q7Z3D6),-0.427
10,DENR_O43583_132_VCGLATFEIDLK (UniProt O43583),0.277
11,DEF6_Q9H4E7_94_EHFDELCWTLTAK (UniProt Q9H4E7),-0.0179
12,DENND3_A2RUS2_1174_TLCSAEDRYVLSGSGR (UniProt A2RUS2),-0.121
13,DDX31_Q9H8H2_624_IGCHGSSLLILAPSEAEYVNSLASHK (UniProt Q9H8H2),-0.294
14,DEPDC5_O75140_416_SQLFCNSFTPR (UniProt O75140),-0.486
15,DGKQ_P52824_171_QCHQDGHQDHDTHHHHWR (UniProt P52824),0.176
16,DDX59_Q5T1V6_453_LFKPPVLVFVDCK (UniProt Q5T1V6),-1.68
17,DDX46_Q7L014_696_HLILVVNYSCPNHYEDYVHR (UniProt Q7L014),0.126
18,DDX5_P17844_170_TLSYLLPAIVHINHQPFLERGDGPICLVLAPTR (UniProt P17844),0.565
